# Results deposited as PubChem BioAssay AID1259279 (Sanger Institute, 2017).
# Test: 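Find kinases whose loss works with colorectal cancer drugs to kill cells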 (primary screen)
# Cell system: LS180 human colorectal cancer cells
# Reagent: siRNA pool against human genes
# Challenge: anchor drug BYL719 at 1 µM, cetuximab at 5 µg/ml or trametinib at 10 nM, or DMSO vehicle only
# Detection: 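Viability as a fraction of non-targeting control and as a replicate-averaged robust z-score, with separate synergy scores for BYL719, cetuximab and trametinib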
# Direction: viability z-score, no drug: higher = more viable cells after knock-down; viability, no drug: higher = more viable cells; synergy score with BYL719 and synergy score with cetuximab and synergy score with trametinib: higher = stronger synthetic lethal synergy with drug
# Active means: 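a knock-down is called active, meaning essential, if its viability z-score in vehicle alone falls below -3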
# Calls: active = essential (knock-down alone cuts viability); inactive = no change without drug
# The deposit covers 794 reagents; below is an unselected part. 11 of them (1.4%) were called active. 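Calls reflect knock-down alone in the vehicle arm, not drug synergy.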 Unmarked entries are inactive. Viability is capped at 1. Not stated in the record: the amount of reagent, the time to read-out.
Target gene,PubChem SID,"viability z-score, no drug","viability, no drug (fraction)",synergy score with BYL719,synergy score with cetuximab,synergy score with trametinib
CKS1B,SID56478807,0.86,1,-0.0183,-0.166,-0.0962
LMTK3,SID152150242,-0.993,0.798,-0.0395,-0.0476,0.0998
MKNK1,SID135620901,0.0357,0.91,-0.273,-0.238,-0.0473
CDK13,SID152148828,0.86,1,-0.0553,-0.166,-0.134
TWF1,SID56478546,0.86,1,-0.201,-0.166,-0.183
PSKH2,SID56479040,0.86,1,0.0939,0.0301,0.0848
RPS6KB2,SID152153683,-0.665,0.834,-0.00559,-0.162,-0.146
AMER1,SID135623077,-0.637,0.837,-0.0534,-0.0448,-0.0684
PIM3,SID135625114,0.86,1,-0.2,-0.0313,-0.0162
TP53,SID135620665,0.559,0.967,-0.103,-0.193,-0.0328
SMAD2,SID152156776,0.86,1,0.0139,-0.0448,-0.123
PDK3,SID152151041,-0.0459,0.901,0.0867,-0.0688,-0.0645
STK38L,SID152156064,-1.96,0.692,-0.0233,-0.00348,-0.0035
FES,SID56478510,-0.503,0.851,-0.155,-0.199,-0.16
AURKA,SID135620696,-1.74,0.716,0.0364,0.0484,0.0508
DGKI,SID56479093,0.86,1,-0.163,-0.117,-0.0223
MAP3K20,SID152152597,0.86,1,-0.0806,-0.131,0.0226
CSNK2A1,SID135620685,0.86,1,-0.164,-0.115,0.111
MAK,SID56478884,0.86,1,0.0673,-0.00348,0.0386
MAPK13,SID56478704,0.802,0.994,-0.038,-0.171,-0.0197
